# Assay results published in PubChem BioAssay AID1487 (National Center for Advancing Translational Sciences (NCATS), 2009).
# Some of the results follow. Shown are side measurements of this screen, not its main read-out; they come without a call. Most of these compounds were active or inconclusive in the main read-out, so they are no random draw. The note in brackets gives the kind of curve behind each potency; many fits are weak.
# Experiment: qHTS Assay for Modulators of Lamin A Splicing
# Conditions: HeLa LMNA splicing GFP/RFP minigene ratio, 48 h
# Procedure, shortened: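 Read-out is the ratio of GFP to DsRed2 object intensity, acquired by 488 nm laser-scanning cytometry on HeLa lamin A-EGFP minigene reporter cells. Compound incubation 48 hrs at 37 °C in Opti-MEM with 2% FBS; DMSO 0.5% final.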
# [1] = measured here: RFP viability control channel
# [2] = measured here: GFP splicing reporter channel
SMILES,AC50 [1],AC50 [2]
CN1C(=O)/C(=C/c2ccccc2OCc2ccc(F)cc2)N(C)C1=S,"0.112 µM [rising, full curve, poor fit]",–
Cc1ccc(CN2CCc3c(OCC(=O)Nc4cccc(C)c4C)cccc3C2=O)cc1,"0.794 µM [rising, partial curve]","1.41 µM [rising, partial curve, poor fit]"
Oc1c(C(c2ccco2)N2CCN(C(c3ccccc3)c3ccccc3)CC2)sc2ncnn12 (centres undefined),"35.5 µM [rising, single point]","35.5 µM [rising, single point]"
CCOC(=O)Cn1c(=O)n(C2CCCCC2)c2nc(-c3c(F)cccc3Cl)nc(C(N)=O)c21,"3.55 µM [rising, partial curve]","12.6 µM [rising, single point]"
CN1CCN(C(=O)c2ccccc2Nc2ccc(SC(F)F)cc2)CC1,"35.5 µM [rising, single point]","14.1 µM [rising, single point]"
COc1cc(C(=O)Nc2nc(-c3ccc(C)cc3)cs2)ccc1OCC(=O)N1CCOCC1,"20 µM [rising, single point]","12.6 µM [rising, single point]"
O=C(Nc1ccccc1C(F)(F)F)N1CCC(n2c(=O)[nH]c3ccccc32)CC1,"11.2 µM [rising, partial curve, poor fit]",–
CCN(CC)S(=O)(=O)c1ccc(Cl)c(C(=O)Oc2cccc(-c3cnc4ccccc4n3)c2)c1,"6.31 µM [rising, single point]",–
COc1ccc(C(=O)Nc2ccc(N3CCCCC3)cc2)cc1Br,–,"3.16 µM [rising, full curve, poor fit]"
C/C(=N/Nc1nc(-c2ccccc2)cc(-c2ccc(F)cc2)n1)c1cccc(N)c1,"12.6 µM [rising, partial curve]",–
Cc1cccc(Oc2cnn(C(C)(C)C)c(=O)c2Cl)c1,"35.5 µM [rising, single point]",–
Cc1ccc(NC(=O)CSc2nnc(-c3cccnc3)n2CCN2CCCCC2)cc1,"35.5 µM [rising, single point]","35.5 µM [rising, single point]"
Cc1ccc(NC(=O)OCCN2CCN(Cc3ccccc3)CCC2=O)cc1C,"22.4 µM [rising, single point]","31.6 µM [rising, single point]"
COc1ccccc1C(=O)Nc1sc(Nc2ccccc2)nc1C(N)=O,–,"4.47 µM [falling, full curve]"
C/C(=N\Nc1cc(N2CCOCC2)nc(C)n1)c1cccc([N+](=O)[O-])c1,"0.00316 µM [falling, full curve, poor fit]",–
Cc1ccc(CCC(=O)Nc2ncc(Cc3cc(Cl)ccc3Cl)s2)o1,"2.82 µM [rising, full curve]","3.55 µM [rising, full curve]"
COC(=O)/C=C/S(=O)(=O)c1ccc(NC(C)=O)cc1,"14.1 µM [falling, partial curve]",–
CC(C)CC(NC(=O)c1ccc(C#CC(C)(C)O)s1)C(=O)O (centres undefined),–,"0.0282 µM [rising, full curve, poor fit]"
CCCCC(=O)Nc1sc2c(c1C(=O)OCC)CCC(C=O)=C2Cl,"10 µM [falling, partial curve, poor fit]","3.55 µM [falling, full curve]"
O=C(NCc1cccs1)C(=O)NCC(c1ccco1)N1CCN(c2ccc(F)cc2)CC1 (centres undefined),"6.31 µM [falling, partial curve, poor fit]","6.31 µM [falling, partial curve]"
Cc1ccc(NC(=O)CCC(=O)N/N=C/c2cc([N+](=O)[O-])ccc2O)cc1,"31.6 µM [rising, single point]",–
COC(=O)CNC(=O)C(CCSC)NC(C)=O (centres undefined),–,"25.1 µM [rising, partial curve, poor fit]"
CN1CCN(c2ncnc3ccc(-c4cccnc4)cc23)CC1,"14.1 µM [falling, single point]","11.2 µM [falling, partial curve]"
N[C@@H](Cc1cc(I)c(Oc2cc(I)c(O)c(I)c2)c(I)c1)C(=O)O,"0.708 µM [falling, single point]","35.5 µM [falling, single point]"
O=C(NCC1CCCO1)c1ccc(COc2ccccc2Br)cc1 (centres undefined),–,"31.6 µM [rising, single point]"
COc1ccc(CNC(=O)c2c(C)nc3ccccn23)cc1,"22.4 µM [rising, partial curve]",–
COc1ccc(NC(=O)Cc2coc3ccc4ccccc4c23)cc1S(=O)(=O)N1CCOCC1,"35.5 µM [rising, single point]",–

SMILES,AC50 [1],AC50 [2]
Cc1ccc(C(NC(=O)c2ccccc2)C(Cl)(Cl)Cl)cc1 (centres undefined),"17.8 µM [rising, single point]","10 µM [rising, partial curve, poor fit]"
CCn1c(SCC(=O)Nc2cc(C)on2)nnc1-c1ccc(OC)cc1,"2.51 µM [falling, full curve]",–
C=Cc1c(C)c2cc3nc(cc4[nH]c(cc5nc(cc1[nH]2)C(C)=C5CCC(=O)O)c(CCC(=O)OC)c4C)[C@@]1(C)C3=CC=C(C(=O)OC)[C@H]1C(=O)OC (tested in a mixture with another compound),–,"0.0178 µM [falling, full curve, poor fit]"
O=c1nc2s/c(=C\c3ccc(-c4ccccc4[N+](=O)[O-])o3)c(=O)n2nc1-c1ccccc1,"0.355 µM [falling, full curve]","0.1 µM [falling, full curve, poor fit]"
N#Cc1ccc(CSc2nnc(Nc3ccccc3)s2)cc1,"35.5 µM [rising, single point]",–
Cc1nnc(NC(=O)c2ccc(S(=O)(=O)N(C)Cc3ccccc3)cc2)o1,"12.6 µM [rising, partial curve, poor fit]",–
O=C(Nc1cccnc1)c1ccc(Cl)c(S(=O)(=O)N2CCCCCC2)c1,"12.6 µM [rising, partial curve]",–
COc1ccccc1C(=O)NNC(=S)NC(=O)c1ccco1,"7.08 µM [rising, partial curve]",–
CCOC(=O)N1CCN(Cc2ccc(O)c3ncccc23)CC1,–,"7.94 µM [falling, partial curve]"
COc1ccnc(Oc2ccc(F)cc2)c1C(=O)N/C=N/OCc1ccc(Cl)cc1Cl,"15.8 µM [rising, single point]",–
COc1ccccc1N1CCN(C(=O)C2CCC(Cn3c(=S)[nH]c4ccccc4c3=O)CC2)CC1 (centres undefined),"3.55 µM [rising, single point]","2.24 µM [rising, partial curve]"
Cc1nn(C)cc1CN(C)C(=O)c1sc2cccc(Cl)c2c1Cl,"20 µM [rising, single point]",–
COc1ccc(S(=O)(=O)c2c(O)c3ccc(C(=O)Nc4ccccc4)cc3[nH]c2=O)cc1,"0.0224 µM [falling, full curve, poor fit]",–
Cc1ccc(C(=O)Nc2ccc3cn[nH]c3c2)cc1S(=O)(=O)N1CCOCC1,"0.794 µM [falling, full curve, poor fit]","0.501 µM [falling, full curve, poor fit]"
C(=N\Nc1nc2ccccc2[nH]1)/c1c[nH]c2ccccc12,"3.55 µM [rising, full curve]",–
O=S(=O)(NC12CC3CC(CC(C3)C1)C2)c1ccc(F)cc1,"15.8 µM [rising, single point]",–
CC1CCCC(C)N1C(=O)CN1CCN(c2nc(-c3ccc(F)cc3)cs2)CC1 (centres undefined),"14.1 µM [rising, partial curve]",–
CC(C)CCn1c(Sc2nc3ccccc3s2)nc2c1c(=O)[nH]c(=O)n2C,"35.5 µM [rising, single point]",–
Cc1cccc(-c2noc(CN(C(=O)c3ccc(Br)o3)C(C)C)n2)c1,"31.6 µM [rising, single point]","28.2 µM [rising, single point]"
CCCC(c1nnnn1Cc1ccccc1)N1CCC(C(N)=O)CC1 (centres undefined),"2.82 µM [rising, partial curve]","2.51 µM [rising, partial curve, poor fit]"
N#Cc1nc(Cc2ccccc2)oc1NCCCn1ccnc1,"15.8 µM [rising, single point]",–
Cc1ccc(O)c(C=Nc2cc(C)ccc2O)c1,"25.1 µM [rising, single point]","11.2 µM [rising, single point]"
CCS(=O)(=O)c1ncc(Cl)c(C(=O)NCc2ccc(OC)cc2)n1,"5.62 µM [falling, single point]","6.31 µM [falling, full curve]"
CCCc1nnc2n1N=C(c1ccc(OC)c(OC)c1)CS2,"31.6 µM [rising, single point]",–
CCn1c(C)nc([N+](=O)[O-])c1Sc1ccc(F)cc1,"20 µM [rising, partial curve]",–
Cc1cccc(N2CCN(C(=O)C3CCN(c4ncnc5c4nc4n5CCCCC4)CC3)CC2C)c1 (centres undefined),–,"11.2 µM [falling, partial curve]"
CC(=O)Nc1cccc(Oc2ccc(-c3noc(C)n3)cc2)c1,"12.6 µM [rising, partial curve]",–

# Exported with tabs: part of the list above
SMILES	AC50 [1]	AC50 [2]
C=Cc1c(C)c2cc3nc(cc4[nH]c(cc5nc(cc1[nH]2)C(C)=C5CCC(=O)O)c(CCC(=O)OC)c4C)[C@@]1(C)C3=CC=C(C(=O)OC)[C@H]1C(=O)OC (tested in a mixture with another compound)	–	0.0178 µM [falling, full curve, poor fit]
O=c1nc2s/c(=C\c3ccc(-c4ccccc4[N+](=O)[O-])o3)c(=O)n2nc1-c1ccccc1	0.355 µM [falling, full curve]	0.1 µM [falling, full curve, poor fit]
N#Cc1ccc(CSc2nnc(Nc3ccccc3)s2)cc1	35.5 µM [rising, single point]	–
Cc1nnc(NC(=O)c2ccc(S(=O)(=O)N(C)Cc3ccccc3)cc2)o1	12.6 µM [rising, partial curve, poor fit]	–
O=C(Nc1cccnc1)c1ccc(Cl)c(S(=O)(=O)N2CCCCCC2)c1	12.6 µM [rising, partial curve]	–
COc1ccccc1C(=O)NNC(=S)NC(=O)c1ccco1	7.08 µM [rising, partial curve]	–
CCOC(=O)N1CCN(Cc2ccc(O)c3ncccc23)CC1	–	7.94 µM [falling, partial curve]
COc1ccnc(Oc2ccc(F)cc2)c1C(=O)N/C=N/OCc1ccc(Cl)cc1Cl	15.8 µM [rising, single point]	–
COc1ccccc1N1CCN(C(=O)C2CCC(Cn3c(=S)[nH]c4ccccc4c3=O)CC2)CC1 (centres undefined)	3.55 µM [rising, single point]	2.24 µM [rising, partial curve]
Cc1nn(C)cc1CN(C)C(=O)c1sc2cccc(Cl)c2c1Cl	20 µM [rising, single point]	–
COc1ccc(S(=O)(=O)c2c(O)c3ccc(C(=O)Nc4ccccc4)cc3[nH]c2=O)cc1	0.0224 µM [falling, full curve, poor fit]	–
Cc1ccc(C(=O)Nc2ccc3cn[nH]c3c2)cc1S(=O)(=O)N1CCOCC1	0.794 µM [falling, full curve, poor fit]	0.501 µM [falling, full curve, poor fit]
C(=N\Nc1nc2ccccc2[nH]1)/c1c[nH]c2ccccc12	3.55 µM [rising, full curve]	–
O=S(=O)(NC12CC3CC(CC(C3)C1)C2)c1ccc(F)cc1	15.8 µM [rising, single point]	–
CC1CCCC(C)N1C(=O)CN1CCN(c2nc(-c3ccc(F)cc3)cs2)CC1 (centres undefined)	14.1 µM [rising, partial curve]	–
